Laboratory results: PubChem BioAssay AID1053208 (Peter MacCallum Cancer Centre, 2014)
In all, the deposit lists about 17,000 reagents; below is an unselected part. 788 of them (4.7%) were called active. 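Calls rest on z-score classes alone; an extra cut-off of viability at most 70% of control was not applied to them.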 Entries without a mark were called inactive. Further read-outs or replicates are left out here.

Screen: 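Find knock-downs that sensitise mouse osteosarcoma cells to doxorubicin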 (primary screen)
System: mouse osteosarcoma cells, early-passage culture from an engineered mouse model of fibroblastic bone tumour
Reagent: siRNA pool against mouse genes, 40 nM
Timing: about 120 h (48 h before drug, then 72 h with drug)
Challenge: doxorubicin 100 nM for 72 h, roughly 30-40% inhibitory dose
Detection: 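Viability read as ATP luminescence after 72 h of 100 nM doxorubicin or none, duplicate wells averaged, scaled to non-targeting siRNA, then expressed as robust z-scores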
Reading the numbers: viability z-score with doxorubicin: higher = more viable cells under doxorubicin; viability z-score without drug: higher = more viable cells with knock-down alone
Rule for the call: 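a pool counts as active when its viability z-score with doxorubicin is -2 or below and its z-score without drug lies between -2 and 2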

With knock-down of Supt4a (SPT4A, DSIF elongation factor subunit) [SID152263120], the record shows combined z-score class no change with or without drug; viability z-score with doxorubicin 0.34; viability z-score without drug 0.34.
For Psg28 (pregnancy-specific beta-1-glycoprotein 28) [SID152292495], the entry reads combined z-score class no change with or without drug; viability z-score with doxorubicin 1.01; viability z-score without drug 1.35.
With knock-down of Slc13a2 [SID152327566], the screen gave combined z-score class no change with or without drug; viability z-score with doxorubicin -0.11; viability z-score without drug 0.84.
Gzmg (granzyme G) [SID152306099] gave combined z-score class no change with or without drug; viability z-score with doxorubicin 0.45; viability z-score without drug 0.17.
Depletion of Uhrf1 (ubiquitin-like, containing PHD and RING finger domains, 1) [SID152269006] resulted in: combined z-score class no change with or without drug; viability z-score with doxorubicin 0; viability z-score without drug -0.84.
Depletion of Dnaaf11 (dynein axonemal assembly factor 11) [SID152330449] resulted in: combined z-score class low cell count without drug only; viability z-score with doxorubicin -1.8; viability z-score without drug -2.19.
Ccdc88b (coiled-coil domain containing 88B) [SID152288671] gave combined z-score class no change with or without drug; viability z-score with doxorubicin 0; viability z-score without drug -0.51.
Depletion of Erf (Ets2 repressor factor) [SID152267048] gave: combined z-score class no change with or without drug; viability z-score with doxorubicin 0.22; viability z-score without drug 0.51.
Zbtb43 (zinc finger and BTB domain containing 43) [SID152292229] scored combined z-score class no change with or without drug; viability z-score with doxorubicin 0.67; viability z-score without drug 1.18.
For Irf3 (interferon regulatory factor 3) [SID152278827], the values are combined z-score class no change with or without drug; viability z-score with doxorubicin 0.79; viability z-score without drug 0.34.
Vps45 (vacuolar protein sorting 45) [SID152321189] showed combined z-score class no change with or without drug; viability z-score with doxorubicin 0.9; viability z-score without drug 0.34.

2 entries from above, ordered by “viability z-score without drug”, low to high.
Supt4a (SPT4A, DSIF elongation factor subunit) [SID152263120] | combined z-score class: no change with or without drug; viability z-score with doxorubicin: 0.34; viability z-score without drug: 0.34
Psg28 (pregnancy-specific beta-1-glycoprotein 28) [SID152292495] | combined z-score class: no change with or without drug; viability z-score with doxorubicin: 1.01; viability z-score without drug: 1.35

The list goes on.
Silencing of Csf3 (colony stimulating factor 3 (granulocyte)) [SID152337114] gave: combined z-score class no change with or without drug; viability z-score with doxorubicin 0.79; viability z-score without drug 0.67.
After knock-down of Sfswap (splicing factor SWAP) [SID152266208] the results were combined z-score class no change with or without drug; viability z-score with doxorubicin -0.45; viability z-score without drug -1.52.
For Ptgs2 (prostaglandin-endoperoxide synthase 2) [SID152292817], the values are combined z-score class no change with or without drug; viability z-score with doxorubicin 1.12; viability z-score without drug 0.84.
Oog3 (oogenesin 3) [SID152323953] gave combined z-score class no change with or without drug; viability z-score with doxorubicin 0.22; viability z-score without drug 0.84.
For Kcna10 [SID152308973], the values are combined z-score class no change with or without drug; viability z-score with doxorubicin -0.9; viability z-score without drug -0.84.
Depletion of Resp18 (regulated endocrine-specific protein 18) [SID152274991] gave: combined z-score class no change with or without drug; viability z-score with doxorubicin 0.22; viability z-score without drug -0.51.
Depletion of Plin2 (perilipin 2) [SID152264281] came out at: combined z-score class no change with or without drug; viability z-score with doxorubicin -0.22; viability z-score without drug -1.18.
Pim3 (Pim3, proto-oncogene, serine/threonine kinase) [SID152288956] scored combined z-score class no change with or without drug; viability z-score with doxorubicin -0.45; viability z-score without drug -0.17.
After knock-down of Imp3 (IMP3, U3 small nucleolar ribonucleoprotein) [SID152306361], the record shows combined z-score class no change with or without drug; viability z-score with doxorubicin 1.8; viability z-score without drug 1.52.
Stard8 (StAR related lipid transfer domain containing 8) [SID152333068] scored combined z-score class no change with or without drug; viability z-score with doxorubicin -1.57; viability z-score without drug 0.84.
With knock-down of Rnaseh2c (ribonuclease H2, subunit C) [SID152329186], the screen gave combined z-score class no change with or without drug; viability z-score with doxorubicin -0.45; viability z-score without drug -0.51.
After knock-down of Ssb (small RNA binding exonuclease protection factor La) [SID152334140] the results were combined z-score class no change with or without drug; viability z-score with doxorubicin 0.56; viability z-score without drug 0.34.
For Dennd2a (DENN domain containing 2A) [SID152277319], the values are combined z-score class no change with or without drug; viability z-score with doxorubicin 0.67; viability z-score without drug -0.51.
Fam163a (family with sequence similarity 163, member A) [SID152315505] scored combined z-score class no change with or without drug; viability z-score with doxorubicin -1.01; viability z-score without drug -0.51.
Knock-down of Plekhg2 (pleckstrin homology and RhoGEF domain containing G2) [SID152291304] resulted in: combined z-score class no change with or without drug; viability z-score with doxorubicin -0.45; viability z-score without drug -1.18.
Tnn (tenascin N) [SID152295182] gave combined z-score class low cell count with doxorubicin only (active); viability z-score with doxorubicin -2.7; viability z-score without drug 0.51.
After knock-down of Spata31f3 (spermatogenesis associated 31 subfamily F member 3) [SID152319897], the screen gave combined z-score class no change with or without drug; viability z-score with doxorubicin 0; viability z-score without drug -0.34.
